Reference: article PMC4372598
No constants are given. Whether binding was seen depends on the method and setting. For part of these data: In cells and extracts the contact can be indirect. Some entries that bind do so weakly or less than the wild type. For part of these data: Sequences can lack the tags named with a protein.

T1: FLAG-tagged Smyd1 (UniProt P97443)
T1 sequence: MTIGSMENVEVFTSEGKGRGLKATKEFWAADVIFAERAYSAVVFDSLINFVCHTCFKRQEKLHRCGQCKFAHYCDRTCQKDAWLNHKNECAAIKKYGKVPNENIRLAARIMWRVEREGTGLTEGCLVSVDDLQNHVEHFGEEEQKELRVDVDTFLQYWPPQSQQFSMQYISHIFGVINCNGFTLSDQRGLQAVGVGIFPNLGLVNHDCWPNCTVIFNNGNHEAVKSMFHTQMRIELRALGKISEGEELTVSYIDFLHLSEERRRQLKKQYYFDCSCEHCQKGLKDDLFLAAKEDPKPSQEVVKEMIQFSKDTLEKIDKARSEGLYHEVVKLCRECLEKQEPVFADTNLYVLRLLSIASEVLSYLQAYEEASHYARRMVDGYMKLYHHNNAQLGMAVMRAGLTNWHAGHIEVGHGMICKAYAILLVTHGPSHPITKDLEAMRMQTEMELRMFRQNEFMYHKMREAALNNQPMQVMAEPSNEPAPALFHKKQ

T2: Smyd1 (yeast two-hybrid) (UniProt P97443)
T2 sequence: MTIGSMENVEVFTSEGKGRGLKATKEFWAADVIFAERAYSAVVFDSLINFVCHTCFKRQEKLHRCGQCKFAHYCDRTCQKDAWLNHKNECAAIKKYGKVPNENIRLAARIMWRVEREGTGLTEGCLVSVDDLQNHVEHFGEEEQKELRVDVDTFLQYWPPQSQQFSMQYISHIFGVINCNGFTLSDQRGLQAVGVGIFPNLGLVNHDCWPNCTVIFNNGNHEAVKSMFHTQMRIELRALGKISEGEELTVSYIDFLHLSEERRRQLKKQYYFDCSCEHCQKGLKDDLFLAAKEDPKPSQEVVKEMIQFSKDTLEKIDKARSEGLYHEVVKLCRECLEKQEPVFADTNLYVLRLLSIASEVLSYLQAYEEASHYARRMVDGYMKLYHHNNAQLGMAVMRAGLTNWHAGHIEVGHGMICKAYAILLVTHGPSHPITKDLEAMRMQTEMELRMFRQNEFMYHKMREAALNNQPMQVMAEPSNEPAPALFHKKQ


Experiments:
[1] = molecular target: T1, FLAG-tagged Smyd1; assay: co-IP; Cos7 cells co-transfected with FLAG-Smyd1 and MYC-Trb3 constructs; lysis in 10 mM Tris pH 7.4, 1 mM EDTA, 0.5% Triton X100 in PBS; immunoprecipitated with monoclonal anti-FLAG M2, blotted with polyclonal anti-MYC A14
[2] = molecular target: T2, Smyd1 (yeast two-hybrid); assay: two-hybrid; yeast two-hybrid assays, data not shown

| binding [1] | binding [2] | Binder |
| --- | --- | --- |
| binds | – | MYC-tagged TRB3 full-length (protein, UniProt Q8K4K2 1-354) MRATPLAASADVSCRKKPLEFDDNIDAKCPVLKRVRDEPEPGPLPSLLPPSPPPASDLSPAVAPATRLGPYILLEREQGSCSYRALHCPTGTEYTCKVYPASEAQAVLAPYARLPTHQHVARPTEVLLGSRLLYIFFTKTHGDLHSLVRSRRGIPESEAAGLFRQMASAVAHCHKHGLVLRDLKLRRFVFSNCERTKLVLENLEDACVMTGSDDSLWDKHACPAYVGPEILSSRPSYSGKAADVWSLGVALFTMLAGRYPFHDSEPVLLFGKIRRGTFALPEGLSAPARCLIRCLLRKEPSERLVALGILLHPWLREDHGRVSPPQSDRREMDQVVPDGPQLEEAEEGEVGLYG |
| – | binds | TRB3 (yeast two-hybrid) (protein, UniProt Q8K4K2 1-354) MRATPLAASADVSCRKKPLEFDDNIDAKCPVLKRVRDEPEPGPLPSLLPPSPPPASDLSPAVAPATRLGPYILLEREQGSCSYRALHCPTGTEYTCKVYPASEAQAVLAPYARLPTHQHVARPTEVLLGSRLLYIFFTKTHGDLHSLVRSRRGIPESEAAGLFRQMASAVAHCHKHGLVLRDLKLRRFVFSNCERTKLVLENLEDACVMTGSDDSLWDKHACPAYVGPEILSSRPSYSGKAADVWSLGVALFTMLAGRYPFHDSEPVLLFGKIRRGTFALPEGLSAPARCLIRCLLRKEPSERLVALGILLHPWLREDHGRVSPPQSDRREMDQVVPDGPQLEEAEEGEVGLYG |
| binds | – | MYC-tagged TRB3 (1-80) (domain or fragment, UniProt Q8K4K2 1-80) MRATPLAASADVSCRKKPLEFDDNIDAKCPVLKRVRDEPEPGPLPSLLPPSPPPASDLSPAVAPATRLGPYILLEREQGS |
